Data source: PubChem BioAssay AID743454 (Peter MacCallum Cancer Centre, 2014)
Test: 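Search for knock-downs that restore vorinostat killing in resistant colon cancer cells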 (primary screen). System: human HCT116-VR colon cancer cells, selected for vorinostat resistance. Reagents: siRNA pool against human genes, 40 nM siRNA pool. Timing: vorinostat for 24 h, read-out about 72 h after transfection. Challenge: vorinostat at 2.5 µM final. Measured: 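Two measures, CellTiter-Fluor viability and luminescent caspase 3/7 activity, each as fold change against same-plate mock wells, mean of duplicates, then screen-wide robust z-score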. Scale: viability robust z-score: higher = more viable cells than screen typical; caspase robust z-score: higher = more caspase 3/7 activity than screen typical. Active means: 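Hits are knock-downs in viability class RV1/RV2 or caspase class CA1/CA2, excluding ones that killed cells in the no-drug cell-count arm; hits then retested with single siRNAs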.
The deposit covers about 18,000 reagents; this is an unselected part. 450 of all reagents (2.5%) count as active. 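Single biological run; no consistent viability z cut-off exists, so the class columns, not z-scores, define the calls.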 No sequences are given here.

What did the screen give for ZNF287?
viability hit class: no change; caspase hit class: no change; viability robust z-score: 0.14; caspase robust z-score: 0.04; activity call: inactive

For FERMT2, how do the results read?
viability hit class: no change; caspase hit class: CA2 (caspase activation); viability robust z-score: -2.34; caspase robust z-score: 6.12; activity call: active

Which result is listed for IFI16?
viability hit class: no change; caspase hit class: no change; viability robust z-score: 0.38; caspase robust z-score: 1.43; activity call: inactive

With HDAC8, how do the results read?
viability hit class: no change; caspase hit class: no change; viability robust z-score: 0.94; caspase robust z-score: -0.49; activity call: inactive

Which result is listed for NAGS?
viability hit class: no change; caspase hit class: no change; viability robust z-score: 1.21; caspase robust z-score: 0.09; activity call: inactive

With VPS35, how do the results read?
viability hit class: no change; caspase hit class: no change; viability robust z-score: -1.68; caspase robust z-score: 2.75; activity call: inactive

What did the screen give for TICRR?
viability hit class: no change; caspase hit class: no change; viability robust z-score: -0.56; caspase robust z-score: 0.38; activity call: inactive

What is on record for LMNB2?
viability hit class: no change; caspase hit class: no change; viability robust z-score: 1.42; caspase robust z-score: -0.06; activity call: inactive

For UTP18, how do the results read?
viability hit class: no change; caspase hit class: no change; viability robust z-score: -1.86; caspase robust z-score: -0.04; activity call: inactive

With SRY, how do the results read?
viability hit class: no change; caspase hit class: no change; viability robust z-score: 0.24; caspase robust z-score: -0.04; activity call: inactive

For GCM2, what was measured?
viability hit class: no change; caspase hit class: no change; viability robust z-score: 1.17; caspase robust z-score: 0.52; activity call: inactive

Which result is listed for FGFBP2?
viability hit class: no change; caspase hit class: no change; viability robust z-score: -0.74; caspase robust z-score: 0.9; activity call: inactive

For ACY1, what was measured?
viability hit class: no change; caspase hit class: no change; viability robust z-score: -1.38; caspase robust z-score: 3.59; activity call: inactive

With LAT, how do the results read?
viability hit class: no change; caspase hit class: no change; viability robust z-score: -0.69; caspase robust z-score: 3.79; activity call: inactive

What did the screen give for ZNF480?
viability hit class: no change; caspase hit class: no change; viability robust z-score: 0.47; caspase robust z-score: -0.16; activity call: inactive

What is on record for CSRNP1?
viability hit class: no change; caspase hit class: no change; viability robust z-score: -0.72; caspase robust z-score: 1.56; activity call: inactive

What did the screen give for NCS1?
viability hit class: no change; caspase hit class: no change; viability robust z-score: -0.28; caspase robust z-score: -0.43; activity call: inactive

With PDCD1LG2, what was measured?
viability hit class: no change; caspase hit class: no change; viability robust z-score: -0.38; caspase robust z-score: 0.17; activity call: inactive

With RAP1A, what was measured?
viability hit class: no change; caspase hit class: no change; viability robust z-score: -1.97; caspase robust z-score: 1.25; activity call: inactive

With ST8SIA3, what does the deposit list?
viability hit class: no change; caspase hit class: no change; viability robust z-score: 1.24; caspase robust z-score: 1.45; activity call: inactive

What did the screen give for SLC16A5?
viability hit class: no change; caspase hit class: no change; viability robust z-score: -0.68; caspase robust z-score: 4.15; activity call: inactive

Active calls, of those listed so far:
FERMT2 — viability hit class = no change; caspase hit class = CA2 (caspase activation); viability robust z-score = -2.34; caspase robust z-score = 6.12; activity call = active
